Data: PMC11617872
Results are given in words; binding and its absence hold for the method and conditions named. In cells and extracts the contact can be indirect. A yes stands for co-enrichment or nearness to the bait. Other partners may have been found.

By UniProt entry, the sequences of proteins in these tests, tags left out.
UniProt P25054: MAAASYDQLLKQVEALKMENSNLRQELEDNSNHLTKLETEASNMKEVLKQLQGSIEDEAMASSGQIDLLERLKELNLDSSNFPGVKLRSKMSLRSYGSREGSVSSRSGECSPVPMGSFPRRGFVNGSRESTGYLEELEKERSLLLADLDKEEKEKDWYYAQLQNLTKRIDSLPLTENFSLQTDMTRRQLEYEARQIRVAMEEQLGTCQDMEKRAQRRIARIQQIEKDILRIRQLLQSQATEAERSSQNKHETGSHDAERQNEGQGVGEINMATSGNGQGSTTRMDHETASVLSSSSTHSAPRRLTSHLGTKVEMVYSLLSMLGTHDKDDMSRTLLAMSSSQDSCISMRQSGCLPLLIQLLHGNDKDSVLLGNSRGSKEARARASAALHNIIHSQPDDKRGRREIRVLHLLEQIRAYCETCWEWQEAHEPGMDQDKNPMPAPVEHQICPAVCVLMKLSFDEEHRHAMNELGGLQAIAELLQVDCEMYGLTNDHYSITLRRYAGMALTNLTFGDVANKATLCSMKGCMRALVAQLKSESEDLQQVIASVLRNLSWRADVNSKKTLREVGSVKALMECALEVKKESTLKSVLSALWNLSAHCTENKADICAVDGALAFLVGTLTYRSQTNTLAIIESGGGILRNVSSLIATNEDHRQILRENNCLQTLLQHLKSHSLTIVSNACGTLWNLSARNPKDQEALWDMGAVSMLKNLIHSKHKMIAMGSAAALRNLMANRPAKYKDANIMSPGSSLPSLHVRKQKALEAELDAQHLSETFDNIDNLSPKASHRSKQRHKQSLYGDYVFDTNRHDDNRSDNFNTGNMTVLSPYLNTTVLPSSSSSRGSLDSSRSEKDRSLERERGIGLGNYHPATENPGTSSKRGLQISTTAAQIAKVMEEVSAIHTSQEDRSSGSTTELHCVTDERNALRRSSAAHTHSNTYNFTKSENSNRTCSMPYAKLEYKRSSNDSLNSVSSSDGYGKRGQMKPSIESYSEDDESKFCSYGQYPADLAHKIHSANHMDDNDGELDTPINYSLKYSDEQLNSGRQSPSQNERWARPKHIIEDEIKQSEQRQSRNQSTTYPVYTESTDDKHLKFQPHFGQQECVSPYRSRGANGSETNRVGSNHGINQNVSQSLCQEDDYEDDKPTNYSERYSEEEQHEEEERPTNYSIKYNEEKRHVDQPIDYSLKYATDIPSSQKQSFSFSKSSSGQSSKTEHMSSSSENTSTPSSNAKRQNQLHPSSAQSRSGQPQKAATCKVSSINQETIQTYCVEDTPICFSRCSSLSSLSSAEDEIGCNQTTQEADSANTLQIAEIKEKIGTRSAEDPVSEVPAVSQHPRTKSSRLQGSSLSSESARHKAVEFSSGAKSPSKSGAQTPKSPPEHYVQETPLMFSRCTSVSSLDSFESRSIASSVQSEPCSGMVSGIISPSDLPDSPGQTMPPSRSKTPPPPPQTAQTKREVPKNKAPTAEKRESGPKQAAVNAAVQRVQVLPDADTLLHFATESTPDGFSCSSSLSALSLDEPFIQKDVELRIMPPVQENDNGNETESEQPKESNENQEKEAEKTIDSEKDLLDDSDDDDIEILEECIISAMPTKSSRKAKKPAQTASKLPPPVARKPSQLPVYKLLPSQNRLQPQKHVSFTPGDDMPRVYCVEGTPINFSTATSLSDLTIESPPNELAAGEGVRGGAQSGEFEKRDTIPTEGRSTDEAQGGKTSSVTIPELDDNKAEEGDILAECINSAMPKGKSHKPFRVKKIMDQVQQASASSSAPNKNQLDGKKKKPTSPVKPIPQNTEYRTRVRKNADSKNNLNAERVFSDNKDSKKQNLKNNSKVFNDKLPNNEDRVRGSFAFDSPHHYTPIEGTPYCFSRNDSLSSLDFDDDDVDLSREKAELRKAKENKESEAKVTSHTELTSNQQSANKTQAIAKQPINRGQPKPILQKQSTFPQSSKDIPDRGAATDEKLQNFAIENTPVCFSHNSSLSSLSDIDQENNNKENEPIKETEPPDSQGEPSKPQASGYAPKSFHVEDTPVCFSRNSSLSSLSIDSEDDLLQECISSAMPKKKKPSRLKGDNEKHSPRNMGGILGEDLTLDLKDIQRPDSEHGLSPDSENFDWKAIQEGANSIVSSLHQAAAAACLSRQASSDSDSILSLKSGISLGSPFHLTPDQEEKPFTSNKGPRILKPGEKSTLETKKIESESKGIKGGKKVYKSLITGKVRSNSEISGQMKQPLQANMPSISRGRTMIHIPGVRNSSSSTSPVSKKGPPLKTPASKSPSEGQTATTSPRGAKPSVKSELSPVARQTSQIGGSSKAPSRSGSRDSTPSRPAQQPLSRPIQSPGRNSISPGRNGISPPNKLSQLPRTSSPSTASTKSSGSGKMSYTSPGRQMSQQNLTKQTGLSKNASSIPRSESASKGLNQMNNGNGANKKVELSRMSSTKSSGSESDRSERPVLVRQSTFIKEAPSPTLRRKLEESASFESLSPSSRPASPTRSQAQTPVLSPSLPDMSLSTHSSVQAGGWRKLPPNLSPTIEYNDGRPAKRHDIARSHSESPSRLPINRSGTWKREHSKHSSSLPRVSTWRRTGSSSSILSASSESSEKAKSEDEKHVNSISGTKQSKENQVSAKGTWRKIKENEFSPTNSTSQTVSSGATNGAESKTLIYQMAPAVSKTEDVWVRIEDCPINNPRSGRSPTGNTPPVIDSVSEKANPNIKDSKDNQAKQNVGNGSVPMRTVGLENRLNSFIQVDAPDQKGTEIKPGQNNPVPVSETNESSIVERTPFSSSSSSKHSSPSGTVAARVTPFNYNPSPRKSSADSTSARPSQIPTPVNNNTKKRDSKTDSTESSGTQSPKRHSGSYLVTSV
UniProt O00139: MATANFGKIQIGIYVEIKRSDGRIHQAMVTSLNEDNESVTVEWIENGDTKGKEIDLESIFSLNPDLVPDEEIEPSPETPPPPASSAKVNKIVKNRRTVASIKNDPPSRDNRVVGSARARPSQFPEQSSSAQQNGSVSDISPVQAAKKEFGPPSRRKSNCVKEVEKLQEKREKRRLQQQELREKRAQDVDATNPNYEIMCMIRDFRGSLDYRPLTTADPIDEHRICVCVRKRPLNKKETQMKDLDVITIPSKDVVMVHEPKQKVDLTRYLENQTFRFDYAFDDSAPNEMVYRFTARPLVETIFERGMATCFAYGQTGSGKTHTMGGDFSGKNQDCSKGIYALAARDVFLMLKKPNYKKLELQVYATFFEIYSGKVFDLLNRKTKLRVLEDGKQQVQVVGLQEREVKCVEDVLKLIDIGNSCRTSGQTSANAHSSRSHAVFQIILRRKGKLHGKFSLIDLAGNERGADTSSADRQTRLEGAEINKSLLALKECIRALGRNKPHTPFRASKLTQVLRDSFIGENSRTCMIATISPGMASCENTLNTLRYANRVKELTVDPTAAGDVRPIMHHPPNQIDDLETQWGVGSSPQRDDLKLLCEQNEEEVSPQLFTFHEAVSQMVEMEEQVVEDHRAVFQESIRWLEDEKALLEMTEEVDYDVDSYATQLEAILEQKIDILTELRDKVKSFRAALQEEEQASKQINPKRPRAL

Biological target: Bio-GFP-tagged APC full length (human) (UniProt P25054)
Test: affinity purification with mass spectrometry; streptavidin beads (Dynabeads M-280) pull-down of Bio-GFP-APC full length co-expressed with BirA from HEK293T extracts; SDS-PAGE lane analysed by mass spectrometry

- binding: binds
Substance: KIF2A (endogenous, found in the APC pull-down) (from UniProt O00139 1-706)
